In article PMC8541823:
No constants are given. Whether binding was seen depends on the method and setting. In cells and extracts the contact can be indirect. These calls come from enrichment with a bait or labelling near it, and not all partners need be listed.

Molecular target: CG31030-V5 (Drosophila melanogaster (endogenous in fly heads))
Assay: affinity purification with mass spectrometry; anti-V5-tag mAb magnetic beads on lysates of ~200 heads of CG31030^V5 flies against w^1118 control; 50 mM Tris-HCl pH 7.4, 2 mM EDTA, 150 mM NaCl, 0.5% IGEPAL CA-630, 10% glycerol; 4 h at 4°C; on-bead trypsin digest, nano LC-MS/MS, label-free quantification; three independent experiments, hits at least 2-fold over control in all three

binding: binds
B1: ATP6AP2 (protein, UniProt Q9VHG4 18-320)
chain: SGEFTVLNRPKAISFKGNDALESHYVGDVLYASMGNAVSGDTNWNGLTINDPFNLAKGVILVHVQGIGHVTTAGNVKTYELTGSGTDASLNALAAELEAANEPVCDINFEQFDDGVQAWKSCFGDFEAPAAKPTKHLNPSLHTADKQFLQEVGFINSAADHLAEMAKPSNVLMLRVSVDGVAKAHGEKSVAVEEANKLLSAAISRLLAASQKSSDSVLFVQTTEKDVAASRAKRDTIAASTTNPYNLAVYYGSDYPVIFNIILWFMVVFGLSLLAICYAIAAMDPGRDSIIYRMTSTRIKKDN
